Measurements: the supplement of paper PMC5836539
± gives the standard deviation of the averaged measurements. Most values lie within the scatter of the assay; repeated measurements hardly agree.

Chains of the proteins cited; added tags and fusions are not shown. Lines headed by an entry give the natural chain unless they say otherwise; changes in a name come on top.
UniProt Q9H7L9: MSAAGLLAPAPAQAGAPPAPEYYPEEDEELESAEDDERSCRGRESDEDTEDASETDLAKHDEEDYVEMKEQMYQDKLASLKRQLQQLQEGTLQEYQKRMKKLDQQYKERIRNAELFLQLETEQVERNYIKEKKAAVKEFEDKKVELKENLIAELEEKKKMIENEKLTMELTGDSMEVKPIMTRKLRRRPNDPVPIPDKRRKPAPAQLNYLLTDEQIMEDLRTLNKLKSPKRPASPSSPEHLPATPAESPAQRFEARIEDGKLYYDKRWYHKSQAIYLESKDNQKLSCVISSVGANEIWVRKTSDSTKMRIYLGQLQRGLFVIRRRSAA
UniProt P42166: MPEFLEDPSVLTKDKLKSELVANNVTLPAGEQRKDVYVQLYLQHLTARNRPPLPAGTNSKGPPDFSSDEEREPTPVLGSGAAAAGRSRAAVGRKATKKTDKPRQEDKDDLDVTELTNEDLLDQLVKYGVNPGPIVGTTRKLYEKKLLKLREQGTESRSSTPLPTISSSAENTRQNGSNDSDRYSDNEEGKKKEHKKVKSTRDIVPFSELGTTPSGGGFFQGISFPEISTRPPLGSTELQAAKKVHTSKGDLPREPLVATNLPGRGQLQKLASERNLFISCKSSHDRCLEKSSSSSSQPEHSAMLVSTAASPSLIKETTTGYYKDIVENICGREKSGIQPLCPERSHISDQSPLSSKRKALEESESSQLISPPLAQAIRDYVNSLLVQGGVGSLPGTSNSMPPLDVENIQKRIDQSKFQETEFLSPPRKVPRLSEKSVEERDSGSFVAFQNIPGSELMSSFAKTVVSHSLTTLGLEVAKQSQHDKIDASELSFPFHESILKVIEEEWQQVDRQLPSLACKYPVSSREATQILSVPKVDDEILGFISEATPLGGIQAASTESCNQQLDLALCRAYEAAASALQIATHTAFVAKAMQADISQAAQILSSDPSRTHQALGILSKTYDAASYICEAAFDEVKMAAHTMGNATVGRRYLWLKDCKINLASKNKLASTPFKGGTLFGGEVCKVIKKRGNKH
UniProt Q9C0C2: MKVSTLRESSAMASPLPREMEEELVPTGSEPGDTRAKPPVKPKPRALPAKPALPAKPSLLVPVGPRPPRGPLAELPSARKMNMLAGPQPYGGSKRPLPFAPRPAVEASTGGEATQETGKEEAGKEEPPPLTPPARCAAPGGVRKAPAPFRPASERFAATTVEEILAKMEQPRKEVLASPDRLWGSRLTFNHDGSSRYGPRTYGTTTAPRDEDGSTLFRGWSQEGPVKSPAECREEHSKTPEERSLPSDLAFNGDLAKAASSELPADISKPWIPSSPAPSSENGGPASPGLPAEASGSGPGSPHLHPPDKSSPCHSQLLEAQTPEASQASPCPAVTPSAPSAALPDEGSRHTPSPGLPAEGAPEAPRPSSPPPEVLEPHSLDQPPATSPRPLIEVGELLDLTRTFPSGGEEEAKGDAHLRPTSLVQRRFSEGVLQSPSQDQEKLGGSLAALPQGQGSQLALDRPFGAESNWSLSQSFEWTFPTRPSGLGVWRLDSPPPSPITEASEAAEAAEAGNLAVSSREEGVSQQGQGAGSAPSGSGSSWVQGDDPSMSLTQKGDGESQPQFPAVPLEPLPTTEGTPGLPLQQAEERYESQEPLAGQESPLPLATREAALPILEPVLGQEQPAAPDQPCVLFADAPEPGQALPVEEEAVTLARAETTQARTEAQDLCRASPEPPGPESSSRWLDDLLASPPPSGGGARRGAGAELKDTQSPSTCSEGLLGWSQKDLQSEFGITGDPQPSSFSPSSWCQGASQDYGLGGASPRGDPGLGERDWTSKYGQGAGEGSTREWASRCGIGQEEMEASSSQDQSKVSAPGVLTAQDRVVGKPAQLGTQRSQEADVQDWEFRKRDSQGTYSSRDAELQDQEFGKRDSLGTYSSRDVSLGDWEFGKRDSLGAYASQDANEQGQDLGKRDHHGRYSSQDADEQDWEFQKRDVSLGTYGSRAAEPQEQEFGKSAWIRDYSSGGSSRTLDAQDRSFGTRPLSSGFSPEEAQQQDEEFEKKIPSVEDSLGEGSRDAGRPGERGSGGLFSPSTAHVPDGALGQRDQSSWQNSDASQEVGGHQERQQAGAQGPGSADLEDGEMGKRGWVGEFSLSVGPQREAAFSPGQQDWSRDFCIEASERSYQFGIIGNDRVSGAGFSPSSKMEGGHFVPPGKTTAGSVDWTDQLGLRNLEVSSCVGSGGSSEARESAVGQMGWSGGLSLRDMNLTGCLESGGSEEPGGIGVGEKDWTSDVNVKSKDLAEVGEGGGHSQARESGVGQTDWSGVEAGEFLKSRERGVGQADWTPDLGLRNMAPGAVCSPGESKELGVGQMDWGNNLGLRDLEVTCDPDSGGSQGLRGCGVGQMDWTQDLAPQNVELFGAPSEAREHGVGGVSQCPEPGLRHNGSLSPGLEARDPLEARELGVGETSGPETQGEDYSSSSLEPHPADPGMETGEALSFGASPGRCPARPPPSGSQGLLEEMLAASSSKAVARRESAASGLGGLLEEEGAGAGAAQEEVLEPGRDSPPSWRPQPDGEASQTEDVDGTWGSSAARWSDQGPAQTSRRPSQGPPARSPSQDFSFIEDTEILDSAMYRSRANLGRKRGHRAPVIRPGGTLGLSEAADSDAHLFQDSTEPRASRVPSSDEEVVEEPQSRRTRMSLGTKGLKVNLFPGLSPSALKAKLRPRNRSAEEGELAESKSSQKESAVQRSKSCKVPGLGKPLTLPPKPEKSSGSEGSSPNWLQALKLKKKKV
UniProt Q9HBL0: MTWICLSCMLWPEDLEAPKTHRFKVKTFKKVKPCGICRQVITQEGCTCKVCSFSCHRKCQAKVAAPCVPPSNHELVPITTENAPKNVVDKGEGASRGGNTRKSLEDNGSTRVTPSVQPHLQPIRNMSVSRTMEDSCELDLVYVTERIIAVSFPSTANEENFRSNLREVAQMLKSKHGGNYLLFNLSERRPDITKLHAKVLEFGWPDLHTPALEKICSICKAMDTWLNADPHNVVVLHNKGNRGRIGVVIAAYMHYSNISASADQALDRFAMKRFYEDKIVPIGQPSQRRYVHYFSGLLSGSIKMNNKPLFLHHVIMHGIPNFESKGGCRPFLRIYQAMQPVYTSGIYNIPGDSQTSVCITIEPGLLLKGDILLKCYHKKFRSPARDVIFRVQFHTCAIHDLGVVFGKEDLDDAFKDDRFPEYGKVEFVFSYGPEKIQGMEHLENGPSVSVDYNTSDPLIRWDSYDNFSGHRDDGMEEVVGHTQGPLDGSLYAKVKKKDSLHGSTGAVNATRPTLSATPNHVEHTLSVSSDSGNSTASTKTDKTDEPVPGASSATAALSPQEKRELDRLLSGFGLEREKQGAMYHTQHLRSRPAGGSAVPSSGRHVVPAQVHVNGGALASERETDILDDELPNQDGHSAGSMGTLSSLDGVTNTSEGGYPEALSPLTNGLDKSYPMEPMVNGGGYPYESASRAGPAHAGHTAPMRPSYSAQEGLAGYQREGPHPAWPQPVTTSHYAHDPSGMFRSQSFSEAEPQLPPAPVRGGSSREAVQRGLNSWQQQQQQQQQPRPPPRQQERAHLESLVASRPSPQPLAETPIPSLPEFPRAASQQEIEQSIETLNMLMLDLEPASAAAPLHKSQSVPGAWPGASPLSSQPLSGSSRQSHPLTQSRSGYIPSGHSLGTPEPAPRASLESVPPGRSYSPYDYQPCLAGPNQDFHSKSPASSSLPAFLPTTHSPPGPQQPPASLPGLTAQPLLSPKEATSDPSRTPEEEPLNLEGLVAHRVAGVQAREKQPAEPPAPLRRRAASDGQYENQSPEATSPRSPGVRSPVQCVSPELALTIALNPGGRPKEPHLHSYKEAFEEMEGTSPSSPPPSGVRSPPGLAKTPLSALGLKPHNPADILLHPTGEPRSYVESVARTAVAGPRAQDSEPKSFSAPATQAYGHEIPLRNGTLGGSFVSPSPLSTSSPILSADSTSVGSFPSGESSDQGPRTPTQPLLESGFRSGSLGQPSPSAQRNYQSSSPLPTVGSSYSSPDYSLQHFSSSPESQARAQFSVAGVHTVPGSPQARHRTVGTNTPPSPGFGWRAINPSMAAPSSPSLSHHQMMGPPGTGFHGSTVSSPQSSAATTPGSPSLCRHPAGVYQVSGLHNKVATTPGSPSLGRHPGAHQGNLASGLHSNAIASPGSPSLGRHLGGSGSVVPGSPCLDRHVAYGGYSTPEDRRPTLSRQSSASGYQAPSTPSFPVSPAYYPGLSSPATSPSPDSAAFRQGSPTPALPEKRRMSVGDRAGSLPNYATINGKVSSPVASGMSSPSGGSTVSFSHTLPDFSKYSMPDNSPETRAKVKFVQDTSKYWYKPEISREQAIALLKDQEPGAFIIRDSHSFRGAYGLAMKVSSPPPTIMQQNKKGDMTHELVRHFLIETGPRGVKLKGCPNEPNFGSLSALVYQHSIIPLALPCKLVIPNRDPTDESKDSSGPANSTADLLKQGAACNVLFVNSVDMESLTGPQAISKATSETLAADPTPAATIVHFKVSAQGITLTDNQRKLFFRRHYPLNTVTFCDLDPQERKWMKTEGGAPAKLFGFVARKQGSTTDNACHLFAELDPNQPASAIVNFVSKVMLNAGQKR
UniProt Q12888: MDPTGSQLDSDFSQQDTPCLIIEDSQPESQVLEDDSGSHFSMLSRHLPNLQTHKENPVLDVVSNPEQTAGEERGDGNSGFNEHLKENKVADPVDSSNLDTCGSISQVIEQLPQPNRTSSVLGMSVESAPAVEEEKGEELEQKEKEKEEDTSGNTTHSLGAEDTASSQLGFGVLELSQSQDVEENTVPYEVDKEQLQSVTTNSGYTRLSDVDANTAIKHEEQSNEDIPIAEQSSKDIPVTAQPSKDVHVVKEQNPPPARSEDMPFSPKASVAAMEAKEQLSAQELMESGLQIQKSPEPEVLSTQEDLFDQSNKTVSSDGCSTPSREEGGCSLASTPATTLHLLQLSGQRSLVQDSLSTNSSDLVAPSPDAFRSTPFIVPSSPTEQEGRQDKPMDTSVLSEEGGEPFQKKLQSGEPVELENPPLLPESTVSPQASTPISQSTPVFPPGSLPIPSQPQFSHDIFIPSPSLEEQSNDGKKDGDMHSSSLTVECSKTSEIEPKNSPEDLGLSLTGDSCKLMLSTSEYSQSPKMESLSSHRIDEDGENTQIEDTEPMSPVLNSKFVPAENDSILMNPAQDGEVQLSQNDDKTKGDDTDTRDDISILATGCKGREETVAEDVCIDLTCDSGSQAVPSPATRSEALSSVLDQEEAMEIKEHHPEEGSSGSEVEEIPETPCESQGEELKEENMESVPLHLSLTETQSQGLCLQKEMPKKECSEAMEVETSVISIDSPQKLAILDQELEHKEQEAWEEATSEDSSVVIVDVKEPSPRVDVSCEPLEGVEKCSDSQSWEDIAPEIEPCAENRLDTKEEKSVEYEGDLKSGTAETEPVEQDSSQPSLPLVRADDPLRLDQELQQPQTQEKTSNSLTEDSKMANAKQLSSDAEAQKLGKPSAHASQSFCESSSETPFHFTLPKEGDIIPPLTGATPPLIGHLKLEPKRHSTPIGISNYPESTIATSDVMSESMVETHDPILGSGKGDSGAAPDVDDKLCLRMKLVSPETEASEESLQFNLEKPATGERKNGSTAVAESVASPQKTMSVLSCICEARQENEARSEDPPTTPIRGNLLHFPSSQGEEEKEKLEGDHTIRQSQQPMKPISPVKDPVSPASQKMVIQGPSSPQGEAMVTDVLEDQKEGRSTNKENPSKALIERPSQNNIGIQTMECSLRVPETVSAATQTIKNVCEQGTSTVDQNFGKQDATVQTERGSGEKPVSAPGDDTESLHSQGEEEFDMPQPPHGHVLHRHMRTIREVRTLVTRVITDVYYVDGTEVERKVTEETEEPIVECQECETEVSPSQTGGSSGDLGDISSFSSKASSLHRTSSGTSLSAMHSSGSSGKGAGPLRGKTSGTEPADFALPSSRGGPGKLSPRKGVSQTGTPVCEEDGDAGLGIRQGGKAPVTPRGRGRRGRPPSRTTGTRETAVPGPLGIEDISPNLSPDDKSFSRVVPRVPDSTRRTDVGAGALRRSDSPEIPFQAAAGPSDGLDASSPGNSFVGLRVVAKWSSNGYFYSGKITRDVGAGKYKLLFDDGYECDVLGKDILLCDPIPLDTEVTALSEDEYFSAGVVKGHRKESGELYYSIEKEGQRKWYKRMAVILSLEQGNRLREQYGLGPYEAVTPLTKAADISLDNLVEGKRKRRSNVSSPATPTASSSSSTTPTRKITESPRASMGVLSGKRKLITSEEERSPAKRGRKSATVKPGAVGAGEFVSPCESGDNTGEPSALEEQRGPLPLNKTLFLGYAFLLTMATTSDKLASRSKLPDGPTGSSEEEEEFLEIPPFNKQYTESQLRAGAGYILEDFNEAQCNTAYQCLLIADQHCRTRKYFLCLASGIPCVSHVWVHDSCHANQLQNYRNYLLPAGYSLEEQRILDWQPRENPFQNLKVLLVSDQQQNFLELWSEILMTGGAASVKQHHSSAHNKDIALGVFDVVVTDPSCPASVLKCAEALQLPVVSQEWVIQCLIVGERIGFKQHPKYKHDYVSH

What follows are targets tested with CC[C@@H](C)Nc1cc(C(=O)N[C@H]2C[C@H]3CC[C@@H](C2)N3c2ccc(C(=O)C3CC3)cn2)c(C)cc1C(N)=O [XL888] (assay: phosphopeptide melting temperature shift (XL888 minus DMSO); higher = stabilised by drug treatment). Conditions: 100 µM; treatment time 2 h; layout: intact cells; SK-Mel 28.
Protocol: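 Phospho-TPP in intact SK-Mel 28 cells treated with 100 uM XL888 or DMSO for 2 h, heated at 10 temperatures (37-67 C) for 3 min, soluble fraction TMT10plex-labelled and TiO2 phospho-enriched. Melting curves were fitted per phosphopeptide; the value is the melting point difference (drug minus vehicle) in each of two biological replicates.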
For “SRRM2 phosphosite_1762 (phosphosite position: 1762) (UniProt Q9UQ35)”, the “phosphopeptide melting temperature shift” value was 0.8 °C.
For “SRRM2 phosphosite_1764 (phosphosite position: 1764) (UniProt Q9UQ35)”, the “phosphopeptide melting temperature shift” value was 0.8 °C.
“SRRM2 phosphosite_2121 (phosphosite position: 2121) (UniProt Q9UQ35)” was tested, and the “phosphopeptide melting temperature shift” value was 1.8 °C.
“SRRM2 phosphosite_2123 (phosphosite position: 2123) (UniProt Q9UQ35)” was tested, and the “phosphopeptide melting temperature shift” value was 3.23 ± 2 °C.
With “SRRM2 phosphosite_2407 (phosphosite position: 2407) (UniProt Q9UQ35)” the “phosphopeptide melting temperature shift” value was -1.44 °C.
In the case of “SRRM2 phosphosite_2706 (phosphosite position: 2706) (UniProt Q9UQ35)”, the “phosphopeptide melting temperature shift” value is reported as 2.46 °C.
For “SRRM2 phosphosite_2727 (phosphosite position: 2727) (UniProt Q9UQ35)”, the “phosphopeptide melting temperature shift” value was 4.17 °C.
With “SRRM2 phosphosite_2729 (phosphosite position: 2729) (UniProt Q9UQ35)” the “phosphopeptide melting temperature shift” value was 4.96 °C.
“ST13 phosphosite_76 (phosphosite position: 76) (UniProt P50502)” was tested, and the “phosphopeptide melting temperature shift” value was 0.23 °C.
In the case of “ST13 phosphosite_79 (phosphosite position: 79) (UniProt P50502)”, the “phosphopeptide melting temperature shift” value is reported as 1.99 ± 0.11 °C.
For “STAMBPL1 phosphosite_242 (phosphosite position: 242) (UniProt Q96FJ0)”, the “phosphopeptide melting temperature shift” value was 0.488 °C.
In the case of “STAT1 phosphosite_532 (phosphosite position: 532) (UniProt P42224)”, the “phosphopeptide melting temperature shift” value is reported as 1.67 ± 1.1 °C.
For “STRAP phosphosite_335 (phosphosite position: 335) (UniProt Q9Y3F4)”, the “phosphopeptide melting temperature shift” value was 0.646 ± 0.2 °C.
For “STRAP phosphosite_338 (phosphosite position: 338) (UniProt Q9Y3F4)”, the “phosphopeptide melting temperature shift” value was 0.646 ± 0.2 °C.
“STRN4 phosphosite_53 (phosphosite position: 53) (UniProt Q9NRL3)” was tested, and the “phosphopeptide melting temperature shift” value was 0.788 °C.
For “STRN4 phosphosite_276 (phosphosite position: 276) (UniProt Q9NRL3)”, the “phosphopeptide melting temperature shift” value was 6.79 ± 2.1 °C.
With “STXBP5 phosphosite_759 (phosphosite position: 759) (UniProt Q5T5C0)” the “phosphopeptide melting temperature shift” value was 0.901 °C.
“SUDS3 phosphosite_234 (phosphosite position: 234) (UniProt Q9H7L9)” was tested, and the “phosphopeptide melting temperature shift” value was 1.8 ± 1.4 °C.
“SUDS3 phosphosite_237 (phosphosite position: 237) (UniProt Q9H7L9)” was tested, and the “phosphopeptide melting temperature shift” value was 1.72 ± 2.7 °C.
In the case of “SURF2 phosphosite_190 (phosphosite position: 190) (UniProt Q15527)”, the “phosphopeptide melting temperature shift” value is reported as 1.42 ± 0.43 °C.
With “SURF2 phosphosite_195 (phosphosite position: 195) (UniProt Q15527)” the “phosphopeptide melting temperature shift” value was 1.47 ± 0.47 °C.
“SUZ12 phosphosite_546 (phosphosite position: 546) (UniProt Q15022)” was tested, and the “phosphopeptide melting temperature shift” value was -1.06 °C.
In the case of “SUZ12 phosphosite_583 (phosphosite position: 583) (UniProt Q15022)”, the “phosphopeptide melting temperature shift” value is reported as 3.06 ± 1.1 °C.
“SYNJ1 phosphosite_1220 (phosphosite position: 1220) (UniProt O43426)” was tested, and the “phosphopeptide melting temperature shift” value was 2.05 °C.
“TANC2 phosphosite_400 (phosphosite position: 400) (UniProt Q9HCD6)” was tested, and the “phosphopeptide melting temperature shift” value was 0.863 °C.
For “TANC2 phosphosite_404 (phosphosite position: 404) (UniProt Q9HCD6)”, the “phosphopeptide melting temperature shift” value was 0.863 °C.
In the case of “TBC1D10B phosphosite_687 (phosphosite position: 687) (UniProt Q4KMP7)”, the “phosphopeptide melting temperature shift” value is reported as 3.1 °C.
In the case of “TCP1 phosphosite_544 (phosphosite position: 544) (UniProt P17987)”, the “phosphopeptide melting temperature shift” value is reported as 0.922 °C.
“TCP1 phosphosite_551 (phosphosite position: 551) (UniProt P17987)” was tested, and the “phosphopeptide melting temperature shift” value was 1.84 °C.
For “TFPT phosphosite_252 (phosphosite position: 252) (UniProt P0C1Z6)”, the “phosphopeptide melting temperature shift” value was 3.25 ± 0.65 °C.
In the case of “THOC5 phosphosite_312 (phosphosite position: 312) (UniProt Q13769)”, the “phosphopeptide melting temperature shift” value is reported as 0.698 ± 0.51 °C.
For “THOC5 phosphosite_314 (phosphosite position: 314) (UniProt Q13769)”, the “phosphopeptide melting temperature shift” value was 0.698 ± 0.51 °C.
With “THOP1 phosphosite_16 (phosphosite position: 16) (UniProt P52888)” the “phosphopeptide melting temperature shift” value was 1.09 °C.
“THRAP3 phosphosite_698 (phosphosite position: 698) (UniProt Q9Y2W1)” was tested, and the “phosphopeptide melting temperature shift” value was -0.533 °C.
In the case of “THRAP3 phosphosite_928 (phosphosite position: 928) (UniProt Q9Y2W1)”, the “phosphopeptide melting temperature shift” value is reported as 0.66 ± 0.083 °C.
In the case of “THUMPD3 phosphosite_215 (phosphosite position: 215) (UniProt Q9BV44)”, the “phosphopeptide melting temperature shift” value is reported as 1.89 °C.
In the case of “TJP1 phosphosite_125 (phosphosite position: 125) (UniProt Q07157)”, the “phosphopeptide melting temperature shift” value is reported as 0.558 ± 0.15 °C.
For “TJP1 phosphosite_131 (phosphosite position: 131) (UniProt Q07157)”, the “phosphopeptide melting temperature shift” value was 0.597 ± 0.074 °C.
With “TMPO phosphosite_67 (phosphosite position: 67) (UniProt P42166)” the “phosphopeptide melting temperature shift” value was 3.12 ± 2.3 °C.
For “TMPO phosphosite_74 (phosphosite position: 74) (UniProt P42166)”, the “phosphopeptide melting temperature shift” value was -4.45 °C.
For “TMPO phosphosite_310 (phosphosite position: 310) (UniProt P42166)”, the “phosphopeptide melting temperature shift” value was 0.527 °C.
In the case of “TMPO phosphosite_351 (phosphosite position: 351) (UniProt P42166)”, the “phosphopeptide melting temperature shift” value is reported as -0.56 °C.
With “TNKS1BP1 phosphosite_353 (phosphosite position: 353) (UniProt Q9C0C2)” the “phosphopeptide melting temperature shift” value was 0.485 ± 0.26 °C.
With “TNKS1BP1 phosphosite_1024 (phosphosite position: 1024) (UniProt Q9C0C2)” the “phosphopeptide melting temperature shift” value was 1.97 ± 1.9 °C.
In the case of “TNKS1BP1 phosphosite_1545 (phosphosite position: 1545) (UniProt Q9C0C2)”, the “phosphopeptide melting temperature shift” value is reported as -5.86 °C.
In the case of “TNKS1BP1 phosphosite_1620 (phosphosite position: 1620) (UniProt Q9C0C2)”, the “phosphopeptide melting temperature shift” value is reported as 4.17 °C.
“TNKS1BP1 phosphosite_1621 (phosphosite position: 1621) (UniProt Q9C0C2)” was tested, and the “phosphopeptide melting temperature shift” value was 4.17 °C.
For “TNS1 phosphosite_338 (phosphosite position: 338) (UniProt Q9HBL0)”, the “phosphopeptide melting temperature shift” value was 0.7 °C.
“TNS1 phosphosite_733 (phosphosite position: 733) (UniProt Q9HBL0)” was tested, and the “phosphopeptide melting temperature shift” value was 1.1 ± 1.6 °C.
In the case of “TNS1 phosphosite_907 (phosphosite position: 907) (UniProt Q9HBL0)”, the “phosphopeptide melting temperature shift” value is reported as 4.35 °C.
“TNS1 phosphosite_915 (phosphosite position: 915) (UniProt Q9HBL0)” was tested, and the “phosphopeptide melting temperature shift” value was 0.434 ± 0.99 °C.
With “TNS1 phosphosite_963 (phosphosite position: 963) (UniProt Q9HBL0)” the “phosphopeptide melting temperature shift” value was -0.273 °C.
In the case of “TNS1 phosphosite_1297 (phosphosite position: 1297) (UniProt Q9HBL0)”, the “phosphopeptide melting temperature shift” value is reported as 1.51 ± 2.3 °C.
“TNS3 phosphosite_776 (phosphosite position: 776) (UniProt Q68CZ2)” was tested, and the “phosphopeptide melting temperature shift” value was 0.423 °C.
“TOE1 phosphosite_5 (phosphosite position: 5) (UniProt Q96GM8)” was tested, and the “phosphopeptide melting temperature shift” value was -2.02 °C.
In the case of “TOM1 phosphosite_164 (phosphosite position: 164) (UniProt O60784)”, the “phosphopeptide melting temperature shift” value is reported as 0.241 ± 1.3 °C.
For “TOM1 phosphosite_355 (phosphosite position: 355) (UniProt O60784)”, the “phosphopeptide melting temperature shift” value was -0.989 ± 0.75 °C.
For “TOM1 phosphosite_359 (phosphosite position: 359) (UniProt O60784)”, the “phosphopeptide melting temperature shift” value was -0.399 ± 0.33 °C.
“TP53BP1 phosphosite_265 (phosphosite position: 265) (UniProt Q12888)” was tested, and the “phosphopeptide melting temperature shift” value was 2.16 ± 0.95 °C.
For “TP53BP1 phosphosite_294 (phosphosite position: 294) (UniProt Q12888)”, the “phosphopeptide melting temperature shift” value was 1.41 °C.
“TP53BP1 phosphosite_366 (phosphosite position: 366) (UniProt Q12888)” was tested, and the “phosphopeptide melting temperature shift” value was 1.22 °C.
“TP53BP1 phosphosite_500 (phosphosite position: 500) (UniProt Q12888)” was tested, and the “phosphopeptide melting temperature shift” value was 1.65 ± 0.04 °C.
“TP53BP1 phosphosite_552 (phosphosite position: 552) (UniProt Q12888)” was tested, and the “phosphopeptide melting temperature shift” value was 2.28 ± 0.59 °C.
With “TP53BP1 phosphosite_580 (phosphosite position: 580) (UniProt Q12888)” the “phosphopeptide melting temperature shift” value was 2.18 ± 1 °C.
For “TP53BP1 phosphosite_659 (phosphosite position: 659) (UniProt Q12888)”, the “phosphopeptide melting temperature shift” value was 0.284 °C.
“TP53BP1 phosphosite_660 (phosphosite position: 660) (UniProt Q12888)” was tested, and the “phosphopeptide melting temperature shift” value was 0.284 °C.
For “TP53BP1 phosphosite_662 (phosphosite position: 662) (UniProt Q12888)”, the “phosphopeptide melting temperature shift” value was 0.284 °C.
In the case of “TP53BP1 phosphosite_1114 (phosphosite position: 1114) (UniProt Q12888)”, the “phosphopeptide melting temperature shift” value is reported as 3.64 ± 0.98 °C.
For “TP53BP1 phosphosite_1756 (phosphosite position: 1756) (UniProt Q12888)”, the “phosphopeptide melting temperature shift” value was 2.73 °C.
“TP53BP1 phosphosite_1758 (phosphosite position: 1758) (UniProt Q12888)” was tested, and the “phosphopeptide melting temperature shift” value was 2.74 ± 0.42 °C.
